Binding data for six substances are collected here from paper PMC9606288.

Sequences of proteins named here, by UniProt entry; tags and fusion partners are left off.
UniProt P08588: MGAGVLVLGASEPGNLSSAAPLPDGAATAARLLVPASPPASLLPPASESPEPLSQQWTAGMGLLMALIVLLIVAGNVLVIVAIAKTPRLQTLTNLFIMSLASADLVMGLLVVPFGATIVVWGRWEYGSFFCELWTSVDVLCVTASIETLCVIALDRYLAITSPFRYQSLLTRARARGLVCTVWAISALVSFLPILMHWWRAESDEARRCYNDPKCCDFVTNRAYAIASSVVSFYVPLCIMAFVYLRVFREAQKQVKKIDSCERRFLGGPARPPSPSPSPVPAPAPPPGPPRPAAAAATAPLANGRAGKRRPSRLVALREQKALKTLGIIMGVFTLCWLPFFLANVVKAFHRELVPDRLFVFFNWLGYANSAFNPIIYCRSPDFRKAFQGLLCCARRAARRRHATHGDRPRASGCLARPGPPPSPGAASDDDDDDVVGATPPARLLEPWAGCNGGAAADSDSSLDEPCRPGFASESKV
UniProt P34971: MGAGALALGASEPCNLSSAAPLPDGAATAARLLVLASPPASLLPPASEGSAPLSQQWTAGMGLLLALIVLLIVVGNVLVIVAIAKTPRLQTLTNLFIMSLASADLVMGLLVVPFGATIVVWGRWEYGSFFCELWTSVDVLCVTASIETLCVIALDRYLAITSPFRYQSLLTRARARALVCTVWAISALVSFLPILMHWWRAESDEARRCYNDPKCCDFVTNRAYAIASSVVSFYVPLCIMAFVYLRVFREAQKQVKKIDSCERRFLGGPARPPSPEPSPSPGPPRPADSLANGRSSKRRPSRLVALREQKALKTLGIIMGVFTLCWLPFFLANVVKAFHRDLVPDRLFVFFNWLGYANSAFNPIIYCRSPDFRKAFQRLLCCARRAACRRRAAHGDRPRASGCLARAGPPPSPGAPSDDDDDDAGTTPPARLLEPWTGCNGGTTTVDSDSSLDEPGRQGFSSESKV
UniProt P29067: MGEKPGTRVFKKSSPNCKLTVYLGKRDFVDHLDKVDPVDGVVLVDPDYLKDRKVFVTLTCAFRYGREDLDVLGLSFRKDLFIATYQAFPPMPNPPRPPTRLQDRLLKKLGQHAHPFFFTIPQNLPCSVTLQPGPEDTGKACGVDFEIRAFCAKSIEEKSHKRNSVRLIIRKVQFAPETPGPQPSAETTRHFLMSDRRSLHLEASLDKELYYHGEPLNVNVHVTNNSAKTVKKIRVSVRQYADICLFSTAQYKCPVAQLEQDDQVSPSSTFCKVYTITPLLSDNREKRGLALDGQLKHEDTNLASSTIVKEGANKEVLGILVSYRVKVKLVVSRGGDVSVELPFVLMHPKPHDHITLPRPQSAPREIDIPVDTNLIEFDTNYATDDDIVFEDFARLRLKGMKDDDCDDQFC
UniProt P63095: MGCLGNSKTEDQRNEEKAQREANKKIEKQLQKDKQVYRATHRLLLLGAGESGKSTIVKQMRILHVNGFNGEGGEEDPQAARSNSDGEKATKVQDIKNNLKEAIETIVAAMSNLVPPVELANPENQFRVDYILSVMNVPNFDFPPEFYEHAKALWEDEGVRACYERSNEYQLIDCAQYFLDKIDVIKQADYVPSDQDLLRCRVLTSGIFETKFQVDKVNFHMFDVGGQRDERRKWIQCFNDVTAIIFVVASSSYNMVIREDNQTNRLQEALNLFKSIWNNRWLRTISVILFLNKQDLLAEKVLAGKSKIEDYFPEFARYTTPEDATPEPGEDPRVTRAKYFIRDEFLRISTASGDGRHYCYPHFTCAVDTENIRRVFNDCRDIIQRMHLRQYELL
UniProt P18090: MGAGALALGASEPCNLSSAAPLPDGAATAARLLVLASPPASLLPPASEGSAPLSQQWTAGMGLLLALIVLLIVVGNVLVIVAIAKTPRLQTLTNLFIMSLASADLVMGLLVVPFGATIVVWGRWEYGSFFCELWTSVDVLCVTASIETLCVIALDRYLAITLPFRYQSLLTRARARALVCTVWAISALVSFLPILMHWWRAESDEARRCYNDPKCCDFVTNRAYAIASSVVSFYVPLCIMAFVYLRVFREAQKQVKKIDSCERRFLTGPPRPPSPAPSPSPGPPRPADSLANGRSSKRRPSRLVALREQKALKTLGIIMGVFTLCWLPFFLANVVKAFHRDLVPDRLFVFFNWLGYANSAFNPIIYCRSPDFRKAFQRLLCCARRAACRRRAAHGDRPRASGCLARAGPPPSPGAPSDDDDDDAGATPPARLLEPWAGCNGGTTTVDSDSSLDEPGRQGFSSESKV
UniProt Q91YI4: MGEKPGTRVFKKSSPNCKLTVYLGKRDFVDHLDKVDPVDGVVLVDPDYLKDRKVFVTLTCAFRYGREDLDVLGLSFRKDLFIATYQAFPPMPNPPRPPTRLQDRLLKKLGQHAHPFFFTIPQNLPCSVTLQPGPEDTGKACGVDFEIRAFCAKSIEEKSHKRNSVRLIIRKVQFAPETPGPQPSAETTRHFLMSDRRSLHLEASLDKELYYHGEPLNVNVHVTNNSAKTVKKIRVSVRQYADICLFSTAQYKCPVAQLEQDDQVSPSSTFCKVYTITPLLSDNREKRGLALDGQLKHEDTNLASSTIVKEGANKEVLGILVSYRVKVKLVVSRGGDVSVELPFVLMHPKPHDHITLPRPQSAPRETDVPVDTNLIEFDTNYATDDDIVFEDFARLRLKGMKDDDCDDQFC

For assay [1], the target named is β1AR-Rluc (UniProt P08588). Put plainly: FRET or BRET; BRET in HEK293 cells transfected with β1AR-Rluc and βArr2-YFP along with pCI-neo, TRPC6(WT), TRPC6(DN), TRPC6(KYD) or TRPC3 vectors; ISO 10 μM for 30 min; coelenterazine h 5 μM; with TPEN or EGTA in one panel.
Assay [2] concerns the target β1AR-Rluc (UniProt P08588). Put plainly: FRET or BRET; BRET in HEK293 cells transfected with β1AR-Rluc and Gαs-YFP; NE stimulation, with or without Zn2+. For orientation: In BRET a luciferase serves as donor, and the signal depends on an acceptor being close.
Assay [3] deals with T1, TRPC6, endogenous in neonatal rat cardiomyocytes (rat (endogenous in NRCMs)) (UniProt Q99N78).
T1 sequence: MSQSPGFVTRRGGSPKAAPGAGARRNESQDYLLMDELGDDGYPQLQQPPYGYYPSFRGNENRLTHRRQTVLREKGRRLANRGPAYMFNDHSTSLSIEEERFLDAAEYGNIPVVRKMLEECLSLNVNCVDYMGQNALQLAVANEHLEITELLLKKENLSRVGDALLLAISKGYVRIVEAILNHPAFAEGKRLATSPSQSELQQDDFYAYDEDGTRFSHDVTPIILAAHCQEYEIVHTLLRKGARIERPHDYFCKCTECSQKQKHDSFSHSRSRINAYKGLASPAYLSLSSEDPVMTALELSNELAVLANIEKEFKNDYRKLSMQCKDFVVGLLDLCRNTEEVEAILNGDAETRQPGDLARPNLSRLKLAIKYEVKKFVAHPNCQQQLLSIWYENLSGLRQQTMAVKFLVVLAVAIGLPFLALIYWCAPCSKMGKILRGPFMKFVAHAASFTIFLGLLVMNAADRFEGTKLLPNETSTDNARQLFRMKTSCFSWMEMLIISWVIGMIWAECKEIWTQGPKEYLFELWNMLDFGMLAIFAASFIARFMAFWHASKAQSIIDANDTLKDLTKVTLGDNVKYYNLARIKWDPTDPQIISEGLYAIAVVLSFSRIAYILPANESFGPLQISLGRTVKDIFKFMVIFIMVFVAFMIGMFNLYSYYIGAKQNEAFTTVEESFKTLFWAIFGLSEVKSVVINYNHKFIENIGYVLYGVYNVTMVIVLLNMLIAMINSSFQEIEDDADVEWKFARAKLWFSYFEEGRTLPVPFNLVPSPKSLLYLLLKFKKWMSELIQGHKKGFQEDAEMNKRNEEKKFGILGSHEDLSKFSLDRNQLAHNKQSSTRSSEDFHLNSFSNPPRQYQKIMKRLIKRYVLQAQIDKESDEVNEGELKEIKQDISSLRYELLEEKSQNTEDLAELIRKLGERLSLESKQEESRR
As to the kind of experiment: proximity ligation; PLA of TRPC6 and β1AR in neonatal rat cardiomyocytes with or without overexpression of the Snapin-PDZ-linker.

Assay [4] concerns the target T2, TRPC6 (transient receptor potential canonical 6), endogenous in mouse heart (mouse (endogenous in heart tissue and adult cardiomyocytes)) (UniProt Q61143).
T2 sequence: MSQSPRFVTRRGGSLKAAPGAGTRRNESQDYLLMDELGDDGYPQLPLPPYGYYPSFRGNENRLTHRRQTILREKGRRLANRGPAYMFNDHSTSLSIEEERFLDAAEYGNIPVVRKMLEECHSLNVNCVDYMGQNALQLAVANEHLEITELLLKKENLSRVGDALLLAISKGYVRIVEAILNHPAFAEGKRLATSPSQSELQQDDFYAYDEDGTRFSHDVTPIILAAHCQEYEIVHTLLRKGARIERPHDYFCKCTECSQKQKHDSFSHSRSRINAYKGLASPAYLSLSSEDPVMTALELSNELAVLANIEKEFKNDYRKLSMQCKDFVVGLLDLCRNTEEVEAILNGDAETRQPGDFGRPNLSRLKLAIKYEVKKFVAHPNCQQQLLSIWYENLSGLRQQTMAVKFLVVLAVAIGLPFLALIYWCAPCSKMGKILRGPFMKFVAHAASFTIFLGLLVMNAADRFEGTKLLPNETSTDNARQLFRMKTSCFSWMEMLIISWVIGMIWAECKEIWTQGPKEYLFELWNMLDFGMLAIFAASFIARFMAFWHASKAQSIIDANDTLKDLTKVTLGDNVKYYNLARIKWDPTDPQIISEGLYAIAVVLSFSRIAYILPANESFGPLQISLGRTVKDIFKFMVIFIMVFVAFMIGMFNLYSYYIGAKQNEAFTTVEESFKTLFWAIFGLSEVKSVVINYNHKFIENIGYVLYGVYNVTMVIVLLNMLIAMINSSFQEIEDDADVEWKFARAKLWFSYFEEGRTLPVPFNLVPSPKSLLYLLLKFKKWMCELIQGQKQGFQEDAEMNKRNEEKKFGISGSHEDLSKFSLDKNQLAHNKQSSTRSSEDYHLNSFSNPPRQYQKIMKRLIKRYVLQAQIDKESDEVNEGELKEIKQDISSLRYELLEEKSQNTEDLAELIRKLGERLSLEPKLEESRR
Put plainly: proximity ligation; Duolink PLA Fluorescence on fixed mouse heart cryosections (SAN, LV apex and base; with or without STZ) and isolated adult mouse cardiomyocytes (WT or TRPC6(-/-); with or without formamide); rabbit anti-β1AR with mouse anti-TRPC6 or anti-βArr2; puncta counted.

Assay [5] deals with β1-adrenoceptor (β1AR), endogenous in mouse heart (mouse (endogenous in heart tissue and adult cardiomyocytes)) (UniProt P34971). The description is as above.
The target of another assay is T3, FLAG-tagged TRPC6 (UniProt Q61143).
T3 sequence: T2 sequence
Put plainly: co-IP; HEK293 cells expressing FLAG-TRPC6 and β1AR-EGFP; lysis in 1% Triton X-100, 140 mM NaCl, 1 mM EDTA, 20 mM Tris-HCl pH 7.4; FLAG M2 agarose 12 h; elution with FLAG peptide; western blot. (In general: In western blotting, separated proteins are transferred to a membrane and probed.)

These are yes or no findings as the source states them, for the method shown. Binding seen in cells or lysates may run through a third protein. Some entries that bind do so weakly or less than the wild type. For part of these data: Tags and fused reporters may be left off the sequences shown.

Consider βArr2-YFP (from UniProt P29067 1-410), for which the binding result with β1AR-Rluc [1] is given as “binds”.
On to Gαs-YFP (from UniProt P63095 1-394), for which, in the assay with β1AR-Rluc [2], the binding entry is listed as “binds”.
Turning to “β1AR, endogenous in neonatal rat cardiomyocytes (from UniProt P18090 1-466) (receptor)”, the binding result in assay [3] is “binds”.
Turning to “β1-adrenoceptor (β1AR), endogenous in mouse heart (from UniProt P34971 1-466) (receptor)”, the binding entry in assay [4] is on record as “binds”.
Consider “β-Arrestin 2 (βArr2), endogenous in adult mouse cardiomyocytes (from UniProt Q91YI4 1-410)”, for which the binding result in assay [5] is “binds”.
Consider “EGFP-fused β1AR (from UniProt P08588 1-477) (receptor)”, for which the binding result with FLAG-tagged TRPC6 was “binds”.
